# Data as given in PMC4055408.
# By UniProt entry, the sequences of proteins in these tests, tags left out.
# UniProt Q9UI95: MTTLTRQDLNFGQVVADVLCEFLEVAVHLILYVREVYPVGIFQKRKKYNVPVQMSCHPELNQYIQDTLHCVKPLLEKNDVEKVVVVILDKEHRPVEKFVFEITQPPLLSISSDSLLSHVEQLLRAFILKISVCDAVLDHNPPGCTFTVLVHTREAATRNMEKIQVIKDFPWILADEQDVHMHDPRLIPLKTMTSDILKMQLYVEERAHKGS
# Target: TAP-Rev7 (human Rev7 fused at its N-terminus with a tandem affinity purification tag) (human) (UniProt Q9UI95)
# Assay: affinity purification with mass spectrometry; tandem affinity purification of TAP-Rev7 from stable 293T cells (IgG-Sepharose, TEV, calmodulin-Sepharose), with or without UV 10 J/m^2; bands cut from the gel of the unirradiated sample, nano-LC/MS/MS
binder,measurement,value
"ZNF828/CAMP, endogenous (protein, UniProt Q96JM3 1-812) MEAFQELRKPSARLECDHCSFRGTDYENVQIHMGTIHPEFCDEMDAGGLGKMIFYQKSAKLFHCHKCFFTSKMYSNVYYHITSKHASPDKWNDKPKNQLNKETDPVKSPPLPEHQKIPCNSAEPKSIPALSMETQKLGSVLSPESPKPTPLTPLEPQKPGSVVSPELQTPLPSPEPSKPASVSSPEPPKSVPVCESQKLAPVPSPEPQKPAPVSPESVKATLSNPKPQKQSHFPETLGPPSASSPESPVLAASPEPWGPSPAASPESRKSARTTSPEPRKPSPSESPEPWKPFPAVSPEPRRPAPAVSPGSWKPGPPGSPRPWKSNPSASSGPWKPAKPAPSVSPGPWKPIPSVSPGPWKPTPSVSSASWKSSSVSPSSWKSPPASPESWKSGPPELRKTAPTLSPEHWKAVPPVSPELRKPGPPLSPEIRSPAGSPELRKPSGSPDLWKLSPDQRKTSPASLDFPESQKSSRGGSPDLWKSSFFIEPQKPVFPETRKPGPSGPSESPKAASDIWKPVLSIDTEPRKPALFPEPAKTAPPASPEARKRALFPEPRKHALFPELPKSALFSESQKAVELGDELQIDAIDDQKCDILVQEELLASPKKLLEDTLFPSSKKLKKDNQESSDAELSSSEYIKTDLDAMDIKGQESSSDQEQVDVESIDFSKENKMDMTSPEQSRNVLQFTEEKEAFISEEEIAKYMKRGKGKYYCKICCCRAMKKGAVLHHLVNKHNVHSPYKCTICGKAFLLESLLKNHVAAHGQSLLKCPRCNFESNFPRGFKKHLTHCQSRHNEEANKKLMEALEPPLEEQQI",binding,binds

# No constants are given. Whether binding was seen depends on the method and setting. Binding seen in cells or lysates may run through a third protein. Here binding means that the protein was enriched with, or labelled near, the bait; the list need not be complete.
